≈ marks a conversion by molar mass, not a printed value. Further values from the same series stand in other lists.
Tested on: Escherichia coli
Assay: minimum inhibitory concentration (MIC)
Procedure: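 Broth microdilution MIC (Sensititre BOPO7F bovine plate, CLSI methods) of 19 antimicrobials against field isolates of P. multocida, M. haemolytica, H. somni (deep nasopharyngeal swabs) and E. coli, Enterococcus spp. (rectal swabs) from weaned dairy heifers. Incubation 16-24 h at 35 C. MIC is the lowest concentration preventing visible growth. Values with <= or > lie at the tested range limits. Trimethoprim-sulfamethoxazole is given as the trimethoprim component of a 1:19 mixture.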

CCC[C@@H]1C[C@@H](C(=O)N[C@@H]([C@H]2O[C@H](SC)[C@H](O)[C@@H](O)[C@H]2O)[C@H](C)Cl)N(C)C1 [Clindamycin]
Details	minimum inhibitory concentration [µg/mL]
isolate (source animal id): 221	> 16
isolate (source animal id): 222	> 16
isolate (source animal id): 223	> 16
isolate (source animal id): 224	> 16
isolate (source animal id): 225	> 16
isolate (source animal id): 226	> 16
isolate (source animal id): 227	> 16
isolate (source animal id): 228	> 16
isolate (source animal id): 229	> 16
isolate (source animal id): 230	> 16
isolate (source animal id): 231	> 16
isolate (source animal id): 232	> 16
isolate (source animal id): 233	> 16
isolate (source animal id): 234	> 16
isolate (source animal id): 235	> 16
isolate (source animal id): 236	> 16
isolate (source animal id): 237	> 16
isolate (source animal id): 238	16 (≈ 37.6 µM)
isolate (source animal id): 239	> 16
isolate (source animal id): 240	> 16
isolate (source animal id): 241	> 16
isolate (source animal id): 242	> 16
isolate (source animal id): 243	> 16
isolate (source animal id): 244	> 16
isolate (source animal id): 245	> 16
isolate (source animal id): 246	> 16
isolate (source animal id): 247	> 16
isolate (source animal id): 248	> 16
isolate (source animal id): 249	> 16
isolate (source animal id): 250	> 16
isolate (source animal id): 251	> 16
isolate (source animal id): 252	> 16
isolate (source animal id): 253	> 16
isolate (source animal id): 254	> 16
isolate (source animal id): 255	> 16
isolate (source animal id): 256	> 16
isolate (source animal id): 257	> 16
isolate (source animal id): 258	> 16
isolate (source animal id): 259	> 16
isolate (source animal id): 260	> 16
isolate (source animal id): 261	> 16
isolate (source animal id): 262	> 16
isolate (source animal id): 263	> 16
isolate (source animal id): 264	> 16
isolate (source animal id): 265	> 16
isolate (source animal id): 266	> 16
isolate (source animal id): 267	> 16
isolate (source animal id): 268	> 16
isolate (source animal id): 269	> 16
isolate (source animal id): 270	> 16
isolate (source animal id): 271	> 16
isolate (source animal id): 272	> 16
isolate (source animal id): 273	> 16
isolate (source animal id): 274	> 16
isolate (source animal id): 275	> 16
isolate (source animal id): 276	> 16
isolate (source animal id): 277	> 16
isolate (source animal id): 278	> 16
isolate (source animal id): 279	> 16
isolate (source animal id): 280	> 16
isolate (source animal id): 281	> 16
isolate (source animal id): 282	> 16
isolate (source animal id): 283	> 16
isolate (source animal id): 284	> 16
isolate (source animal id): 285	> 16
isolate (source animal id): 286	> 16
isolate (source animal id): 287	> 16
isolate (source animal id): 288	> 16
isolate (source animal id): 289	> 16
isolate (source animal id): 290	> 16
isolate (source animal id): 291	> 16
isolate (source animal id): 292	> 16
isolate (source animal id): 293	> 16
isolate (source animal id): 294	> 16
isolate (source animal id): 295	> 16
isolate (source animal id): 296	> 16
isolate (source animal id): 297	> 16
isolate (source animal id): 298	> 16
isolate (source animal id): 299	> 16
isolate (source animal id): 300	> 16
isolate (source animal id): 301	> 16
isolate (source animal id): 302	> 16
isolate (source animal id): 303	> 16
isolate (source animal id): 304	> 16
isolate (source animal id): 305	> 16
isolate (source animal id): 306	> 16
isolate (source animal id): 307	> 16
isolate (source animal id): 308	> 16
isolate (source animal id): 309	> 16
isolate (source animal id): 310	> 16
isolate (source animal id): 311	> 16
isolate (source animal id): 312	> 16
isolate (source animal id): 313	> 16
isolate (source animal id): 314	> 16
isolate (source animal id): 315	> 16
isolate (source animal id): 316	> 16
isolate (source animal id): 317	> 16
isolate (source animal id): 318	> 16
isolate (source animal id): 319	> 16
isolate (source animal id): 320	> 16
isolate (source animal id): 321	> 16
isolate (source animal id): 322	> 16
isolate (source animal id): 323	> 16
isolate (source animal id): 324	> 16
isolate (source animal id): 325	> 16
isolate (source animal id): 326	> 16
isolate (source animal id): 327	> 16
isolate (source animal id): 328	> 16
isolate (source animal id): 329	> 16
isolate (source animal id): 330	> 16
isolate (source animal id): 331	> 16
isolate (source animal id): 332	> 16
isolate (source animal id): 333	> 16
isolate (source animal id): 334	> 16
isolate (source animal id): 335	> 16
isolate (source animal id): 336	> 16
isolate (source animal id): 337	> 16
isolate (source animal id): 338	> 16
isolate (source animal id): 339	> 16
isolate (source animal id): 340	> 16
isolate (source animal id): 341	> 16

Source: the supplement of paper PMC8612539
